Values from PubChem BioAssay AID1224830 (NIAID, 2016).
Here is one part, drawn at random, of about 18,000 deposited reagents. About 2,900 of them (16%) were called active. 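Calls are made per well; low scores hint the gene aids the LPS response, high scores that it dampens it.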 Repeated entries: four replicate wells of each siRNA pool. Reagent sequences are not shown.

- Screen: 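Genes whose knock-down alters the TNF-alpha reporter response to LPS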 (primary screen)
- Cells: human THP-1 monocytic leukaemia cells, TNF dual-luciferase reporter clone, PMA-differentiated to macrophage-like cells
- Reagents: siRNA pool against human genes, 50 nM
- Duration: LPS for 4 h, given about 3 days after siRNA transfection
- Treatment: bacterial LPS (TLR4 ligand), 10 ng/ml
- Detection: 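Ratio of firefly to renilla light, scaled to the plate median and expressed as a robust z-score per replicate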
- Reading the numbers: TNF reporter robust z-score: higher = stronger TNF reporter response to LPS
- Rule for the call: 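Each well counts as active if its z-score is over 2.8 or under -1.5; controls are left without a call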

no.	gene symbol	TNF reporter robust z-score	Outcome
1	FETUB (fetuin B)	-1.67	active
2	FETUB (fetuin B)	-0.86	inactive
3	FETUB (fetuin B)	-1.38	inactive
4	FETUB (fetuin B)	-0.81	inactive
5	UBE2G1 (ubiquitin conjugating enzyme E2 G1)	-0.34	inactive
6	UBE2G1 (ubiquitin conjugating enzyme E2 G1)	7.29	active
7	UBE2G1 (ubiquitin conjugating enzyme E2 G1)	1.25	inactive
8	UBE2G1 (ubiquitin conjugating enzyme E2 G1)	-0.11	inactive
9	PRKN (parkin RBR E3 ubiquitin protein ligase)	-1.58	active
10	PRKN (parkin RBR E3 ubiquitin protein ligase)	-0.75	inactive
11	PRKN (parkin RBR E3 ubiquitin protein ligase)	-0.12	inactive
12	PRKN (parkin RBR E3 ubiquitin protein ligase)	-0.59	inactive
13	C16orf54 (chromosome 16 open reading frame 54)	0.55	inactive
14	C16orf54 (chromosome 16 open reading frame 54)	0.74	inactive
15	C16orf54 (chromosome 16 open reading frame 54)	0.59	inactive
16	C16orf54 (chromosome 16 open reading frame 54)	0.75	inactive
17	RC3H1 (ring finger and CCCH-type domains 1)	1.75	inactive
18	RC3H1 (ring finger and CCCH-type domains 1)	0.44	inactive
19	RC3H1 (ring finger and CCCH-type domains 1)	-0.2	inactive
20	RC3H1 (ring finger and CCCH-type domains 1)	0.56	inactive
21	CSDE1 (cold shock domain containing E1)	1.58	inactive
22	CSDE1 (cold shock domain containing E1)	0.05	inactive
23	CSDE1 (cold shock domain containing E1)	0.08	inactive
24	CSDE1 (cold shock domain containing E1)	0.99	inactive
25	RBM4 (RNA binding motif protein 4)	0.79	inactive
26	RBM4 (RNA binding motif protein 4)	-0.07	inactive
27	RBM4 (RNA binding motif protein 4)	0.37	inactive
28	RBM4 (RNA binding motif protein 4)	-0.71	inactive
29	OR2W5	-0.24	inactive
30	OR2W5	-0.37	inactive
31	OR2W5	-0.56	inactive
32	OR2W5	-1.72	active
33	YWHAE	1.49	inactive
34	YWHAE	0.6	inactive
35	YWHAE	0.87	inactive
36	DEFB104B (defensin beta 104B)	-0.8	inactive
37	DEFB104B (defensin beta 104B)	-0.64	inactive
38	DEFB104B (defensin beta 104B)	-0.06	inactive
39	DEFB104B (defensin beta 104B)	-0.82	inactive
40	RGS20 (regulator of G protein signaling 20)	-1.63	active
41	RGS20 (regulator of G protein signaling 20)	-1.39	inactive
42	RGS20 (regulator of G protein signaling 20)	-1.79	active
43	RGS20 (regulator of G protein signaling 20)	-1.35	inactive
44	ROPN1 (rhophilin associated tail protein 1)	0.43	inactive
45	ROPN1 (rhophilin associated tail protein 1)	0.2	inactive
46	ROPN1 (rhophilin associated tail protein 1)	0.27	inactive
47	ROPN1 (rhophilin associated tail protein 1)	-0.46	inactive
48	COIL (coilin)	-1.26	inactive
49	COIL (coilin)	-0.33	inactive
50	COIL (coilin)	-0.62	inactive
51	COIL (coilin)	-0.57	inactive
52	CCR7 (C-C motif chemokine receptor 7)	0.33	inactive
53	CCR7 (C-C motif chemokine receptor 7)	0.5	inactive
54	CCR7 (C-C motif chemokine receptor 7)	0.83	inactive
55	CCR7 (C-C motif chemokine receptor 7)	0.92	inactive
56	ALDH6A1 (aldehyde dehydrogenase 6 family member A1)	0.59	inactive
57	ALDH6A1 (aldehyde dehydrogenase 6 family member A1)	0.19	inactive
58	ALDH6A1 (aldehyde dehydrogenase 6 family member A1)	1.23	inactive
59	ALDH6A1 (aldehyde dehydrogenase 6 family member A1)	1.67	inactive
60	TMEM218 (transmembrane protein 218)	-0.58	inactive
61	TMEM218 (transmembrane protein 218)	-1.1	inactive
62	TMEM218 (transmembrane protein 218)	-0.02	inactive
63	TMEM218 (transmembrane protein 218)	-0.92	inactive
64	PSENEN (presenilin enhancer, gamma-secretase subunit)	-0.37	inactive
65	PSENEN (presenilin enhancer, gamma-secretase subunit)	1.49	inactive
66	PSENEN (presenilin enhancer, gamma-secretase subunit)	0	inactive
67	PSENEN (presenilin enhancer, gamma-secretase subunit)	0.58	inactive
68	C10orf62 (chromosome 10 open reading frame 62)	-0.72	inactive
69	C10orf62 (chromosome 10 open reading frame 62)	0.31	inactive
70	C10orf62 (chromosome 10 open reading frame 62)	0.33	inactive
71	C10orf62 (chromosome 10 open reading frame 62)	-0.77	inactive

Continued, starting with the last 18 of the part before.
no.	gene symbol	TNF reporter robust z-score	Outcome
54	CCR7 (C-C motif chemokine receptor 7)	0.83	inactive
55	CCR7 (C-C motif chemokine receptor 7)	0.92	inactive
56	ALDH6A1 (aldehyde dehydrogenase 6 family member A1)	0.59	inactive
57	ALDH6A1 (aldehyde dehydrogenase 6 family member A1)	0.19	inactive
58	ALDH6A1 (aldehyde dehydrogenase 6 family member A1)	1.23	inactive
59	ALDH6A1 (aldehyde dehydrogenase 6 family member A1)	1.67	inactive
60	TMEM218 (transmembrane protein 218)	-0.58	inactive
61	TMEM218 (transmembrane protein 218)	-1.1	inactive
62	TMEM218 (transmembrane protein 218)	-0.02	inactive
63	TMEM218 (transmembrane protein 218)	-0.92	inactive
64	PSENEN (presenilin enhancer, gamma-secretase subunit)	-0.37	inactive
65	PSENEN (presenilin enhancer, gamma-secretase subunit)	1.49	inactive
66	PSENEN (presenilin enhancer, gamma-secretase subunit)	0	inactive
67	PSENEN (presenilin enhancer, gamma-secretase subunit)	0.58	inactive
68	C10orf62 (chromosome 10 open reading frame 62)	-0.72	inactive
69	C10orf62 (chromosome 10 open reading frame 62)	0.31	inactive
70	C10orf62 (chromosome 10 open reading frame 62)	0.33	inactive
71	C10orf62 (chromosome 10 open reading frame 62)	-0.77	inactive
72	PRKCI (protein kinase C iota)	1.15	inactive
73	PRKCI (protein kinase C iota)	0.39	inactive
74	PRKCI (protein kinase C iota)	0.27	inactive
75	PRKCI (protein kinase C iota)	-0.68	inactive
76	IL17B (interleukin 17B)	-0.59	inactive
77	IL17B (interleukin 17B)	-0.23	inactive
78	IL17B (interleukin 17B)	-0.24	inactive
79	IL17B (interleukin 17B)	-0.13	inactive
80	CTDP1 (CTD phosphatase 1)	0.04	inactive
81	CTDP1 (CTD phosphatase 1)	1.79	inactive
82	CTDP1 (CTD phosphatase 1)	1.48	inactive
83	CTDP1 (CTD phosphatase 1)	0.64	inactive
84	FAR2 (fatty acyl-CoA reductase 2)	-0.92	inactive
85	FAR2 (fatty acyl-CoA reductase 2)	-0.85	inactive
86	FAR2 (fatty acyl-CoA reductase 2)	-0.64	inactive
87	FAR2 (fatty acyl-CoA reductase 2)	-0.15	inactive
88	MARK3 (microtubule affinity regulating kinase 3)	-0.6	inactive
89	MARK3 (microtubule affinity regulating kinase 3)	0.93	inactive
90	MARK3 (microtubule affinity regulating kinase 3)	14.1	active
91	MARK3 (microtubule affinity regulating kinase 3)	2.55	inactive
92	CD8B (CD8 subunit beta)	-0.52	inactive
93	CD8B (CD8 subunit beta)	0.54	inactive
94	CD8B (CD8 subunit beta)	0.7	inactive
95	CD8B (CD8 subunit beta)	0.55	inactive
96	ZNF157 (zinc finger protein 157)	1.39	inactive
97	ZNF157 (zinc finger protein 157)	0.63	inactive
98	ZNF157 (zinc finger protein 157)	-0.04	inactive
99	ZNF157 (zinc finger protein 157)	0.39	inactive
100	ERCC6 (ERCC excision repair 6, chromatin remodeling factor)	0.91	inactive
101	ERCC6 (ERCC excision repair 6, chromatin remodeling factor)	-0.04	inactive
102	ERCC6 (ERCC excision repair 6, chromatin remodeling factor)	-0.59	inactive
103	ERCC6 (ERCC excision repair 6, chromatin remodeling factor)	0.22	inactive
104	DHRS7B (dehydrogenase/reductase 7B)	1.86	inactive
105	DHRS7B (dehydrogenase/reductase 7B)	-0.7	inactive
106	DHRS7B (dehydrogenase/reductase 7B)	0.9	inactive
107	DHRS7B (dehydrogenase/reductase 7B)	0.3	inactive
108	CD164 (CD164 molecule)	-1.51	active
109	CD164 (CD164 molecule)	-1.16	inactive
110	CD164 (CD164 molecule)	-1.11	inactive
111	CD164 (CD164 molecule)	-0.94	inactive
112	ZMYND19 (zinc finger MYND-type containing 19)	-0.48	inactive
113	ZMYND19 (zinc finger MYND-type containing 19)	-0.81	inactive
114	ZMYND19 (zinc finger MYND-type containing 19)	-0.15	inactive
115	ZMYND19 (zinc finger MYND-type containing 19)	-0.33	inactive
116	MOS (MOS proto-oncogene, serine/threonine kinase)	-1.72	active
117	MOS (MOS proto-oncogene, serine/threonine kinase)	-1.81	active
118	MOS (MOS proto-oncogene, serine/threonine kinase)	-1.77	active
119	MOS (MOS proto-oncogene, serine/threonine kinase)	-1.45	inactive
120	RNF133 (ring finger protein 133)	-0.76	inactive
121	RNF133 (ring finger protein 133)	-1.17	inactive
122	RNF133 (ring finger protein 133)	1.92	inactive
123	RNF133 (ring finger protein 133)	3.44	active
124	THAP2 (THAP domain containing 2)	0.32	inactive
125	THAP2 (THAP domain containing 2)	0.18	inactive
126	THAP2 (THAP domain containing 2)	0.65	inactive
127	THAP2 (THAP domain containing 2)	0.98	inactive
128	ATP6V1E1 (ATPase H+ transporting V1 subunit E1)	0.68	inactive
129	ATP6V1E1 (ATPase H+ transporting V1 subunit E1)	1.6	inactive
130	ATP6V1E1 (ATPase H+ transporting V1 subunit E1)	1.64	inactive
131	ATP6V1E1 (ATPase H+ transporting V1 subunit E1)	0.39	inactive
132	IL17F (interleukin 17F)	0.36	inactive
133	IL17F (interleukin 17F)	0.89	inactive
134	IL17F (interleukin 17F)	-1.02	inactive
135	IL17F (interleukin 17F)	0.68	inactive
136	HBZ (hemoglobin subunit zeta)	-0.67	inactive
137	HBZ (hemoglobin subunit zeta)	0.38	inactive
138	HBZ (hemoglobin subunit zeta)	-0.26	inactive
139	HBZ (hemoglobin subunit zeta)	1.36	inactive
140	DRD1 (dopamine receptor D1)	-0.88	inactive
141	DRD1 (dopamine receptor D1)	-0.41	inactive
142	DRD1 (dopamine receptor D1)	-0.24	inactive
143	DRD1 (dopamine receptor D1)	-0.35	inactive
